Reference: PubChem BioAssay AID504786 (Drosophila RNAi Screening Center, 2011)
The deposit covers about 21,000 reagents; shown is an unselected part of those with a known target gene and a result. 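Primary screen; positive scores mean lost reporter signal, so the sign may be inverted from the usual convention.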

- Screen: 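Knock-downs reducing HIF reporter induction by the iron chelator DFO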 (primary screen)
- System: Drosophila S2 cells with a stable HIF luciferase reporter
- Knock-down reagent: long dsRNA against Drosophila genes, about 0.2 µg dsRNA per well of a 384-well plate
- Time to read-out: three days of knock-down, then 20 h of DFO before reading
- Conditions: desferrioxamine (DFO) at 100 µM, an iron chelator that mimics hypoxia, for 20 h
- Measurement: 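HIF reporter luminescence in cells given 100 µM DFO for 20 h, using the mouse ldh-a hypoxia-response element, scored as per-plate z-scores; higher means greater loss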
- Direction: z-score: higher = stronger loss of HIF reporter signal

| target gene | PubChem SID | z-score, replicate 1 | z-score, replicate 2 | z-score, replicate 3 | z-score, replicate 4 |
| --- | --- | --- | --- | --- | --- |
| CG15534 | SID104194862 | -0.5 | 0.1 | – | – |
| CDase | SID104194724 | -0.3 | -0.2 | – | – |
| Arl2 | SID104193909 | -0.4 | -0.3 | – | – |
| nAChRbeta3 | SID104180117 | -0.2 | -0.2 | – | – |
| CG32548 | SID104199419 | -0.3 | -0.1 | – | – |
| CG32548 | SID104199774 | -0.4 | -0.7 | – | – |
| pds5 | SID104186462 | -0.3 | -0.9 | – | – |
| insc | SID104184487 | -0.3 | -0.2 | – | – |
| CG13689 | SID104180150 | -0.3 | 0 | – | – |
| CR11235 | SID104200272 | -0.5 | -0.8 | – | – |
| Tsp42El | SID104185978 | -0.1 | -0.6 | – | – |
| CG14615 | SID104200419 | -0.2 | -0.3 | – | – |
| Cht8 | SID104184338 | 0.1 | 0 | – | – |
| NaCP60E | SID104184099 | -0.2 | -0.2 | – | – |
| PolE2 | SID104189529 | 0.1 | 0.2 | – | – |
| CG11741 | SID104194159 | -0.5 | -0.8 | – | – |
| jtb | SID104186660 | -0.1 | -0.4 | – | – |
| yip3 | SID104184516 | -0.5 | 0 | – | – |
| dy | SID104200117 | -0.2 | 0.1 | – | – |
| CG17777 | SID104197929 | -0.3 | -0.3 | – | – |
| RIC-3 | SID104184035 | -0.3 | -0.4 | – | – |
| RIC-3 | SID104184335 | -0.1 | -0.2 | – | – |
| CG10911 | SID104185800 | -0.5 | -0.3 | – | – |
| FoxK | SID104189651 | -0.4 | -0.1 | – | – |
| zen2 | SID104192425 | -0.3 | -0.5 | – | – |
| zetaTry | SID104187512 | -0.4 | -0.6 | – | – |
| tun | SID104185384 | 0 | -0.2 | – | – |
| tun | SID104186919 | -0.2 | -0.2 | – | – |
| CG14383 | SID104194633 | -0.2 | 0.2 | – | – |
| JMJD6 | SID104195579 | -0.1 | 0.2 | – | – |
| Dsor1 | SID104198254 | 2 | 2.3 | – | – |
| GILT2 | SID104193988 | -0.3 | -0.3 | – | – |
| sNPF | SID104182101 | -0.1 | 0.9 | – | – |
| jigr1 | SID104193516 | -0.3 | -0.2 | – | – |
| jigr1 | SID104195025 | -0.1 | 0.9 | – | – |
| CG5194 | SID104190284 | -0.3 | -0.6 | – | – |
| CG13992 | SID104182116 | -0.3 | -0.2 | – | – |
| Cyp317a1 | SID104187158 | -0.1 | -0.3 | – | – |
| CG3500 | SID104184171 | -0.3 | -0.4 | – | – |
| egr | SID104186025 | -0.3 | -0.5 | – | – |
| CG15425 | SID104180232 | -0.2 | 0.2 | – | – |
| Hmx | SID104195676 | -0.3 | -0.5 | – | – |
| Hmx | SID104196498 | -0.4 | 0.2 | – | – |
| Ugt303B3 | SID104193991 | -0.1 | 0.9 | – | – |
| Taf5 | SID104187354 | 0.9 | 1.5 | – | – |
| mad2 | SID104190066 | 0.1 | -0.1 | – | – |
| CG10479 | SID104189525 | -0.1 | 0 | – | – |
| Cyt-b5-r | SID104183100 | 0 | -0.1 | – | – |
| HHEX | SID104195978 | 0.5 | 0.1 | – | – |
| Qtzl | SID104181013 | 0 | 0.4 | – | – |
| CG31872 | SID104182360 | -0.1 | 0.1 | – | – |
| CG31872 | SID104182364 | -0.2 | -0.3 | – | – |
| Rpn7 | SID104196633 | 7.6 | 5.5 | – | – |
| CG14227 | SID104199376 | -0.6 | -0.5 | – | – |
| klu | SID104191149 | -0.5 | -0.4 | – | – |
| Dnali1 | SID104195950 | -0.4 | -0.6 | – | – |
| CG7600 | SID104189473 | -0.2 | -0.5 | – | – |
| ccb | SID104200293 | -0.2 | -0.9 | – | – |
| PolH | SID104191592 | -0.2 | -0.2 | – | – |
| CG10132 | SID104181805 | -0.2 | -0.3 | – | – |
| Acp53Ea | SID104185708 | -0.3 | -0.3 | – | – |
| Aos1 | SID104193905 | -0.6 | -1.3 | – | – |
| CG7148 | SID104191594 | -0.3 | -0.5 | – | – |
| Ost48 | SID104198485 | -0.1 | 0.2 | – | – |
| bsk | SID104183291 | -0.3 | -0.8 | – | – |
| Vps2 | SID104194678 | -0.3 | 1.7 | – | – |
| CG14635 | SID104197737 | -0.2 | -0.1 | – | – |
| Mct1 | SID104198473 | -0.3 | -0.6 | – | – |
| msd5 | SID104188352 | -0.3 | -0.1 | – | – |
| CG7137 | SID104186809 | -0.3 | -0.5 | – | – |
| nesd | SID104181891 | -0.1 | 0.1 | – | – |
| CG15615 | SID104186360 | -0.2 | -0.3 | – | – |
| hui | SID104185769 | -0.1 | 0.5 | – | – |
| CG10651 | SID104181878 | -0.1 | -0.1 | – | – |
| CG17633 | SID104182423 | -0.4 | -0.5 | – | – |
| CG14151 | SID104189945 | -0.2 | 0 | – | – |
| Vha36-2 | SID104186086 | -0.5 | -0.3 | – | – |
| CG1572 | SID104199478 | -0.3 | -0.5 | – | – |
| Ran | SID104200156 | 5.8 | 4.2 | – | – |
| cno | SID104191846 | -0.4 | 0.3 | – | – |
| cno | SID104192166 | 1.8 | 4.6 | – | – |
| CG32119 | SID104189040 | -0.1 | -0.1 | -0.3 | 0 |
| CG17362 | SID104190059 | -0.2 | -0.5 | – | – |

Individual results from the entries so far:
For “z-score, replicate 1”, Hmx [SID104195676] shows -0.3
RIC-3 [SID104184335], z-score, replicate 2 = -0.2
Cyp317a1 [SID104187158], z-score, replicate 1: -0.1
For “z-score, replicate 2”, jigr1 [SID104193516] is entered as -0.2
Under “z-score, replicate 2”, Cyt-b5-r [SID104183100] is entered as -0.1
Result of Vps2 [SID104194678] under “z-score, replicate 2”: 1.7
